According to US5470833A, “Endothelin antagonistic peptide derivatives” (Banyu Pharmaceutical Co., Ltd., priority 1990, dated 1995):
Not every detail of the peptide structures is certain; ends, links or a residue may be inferred.

Tested on: isolated rat heart
Assay: Effects on the increased perfusion pressure induced by endothelin in isolated rat heart (Langendorff)
Conditions: 1 μM compound
Procedure: The heart of a male Sprague Dohrie (SD) rat was extracted, and the perfusion pressure was measured and recorded according to the Langendorff's method.
Endothelin-1 was cumulatively added to the perfusate, whereby the influence of a compound of the present invention to the concentration-response curve for endothelin-1 was examined. The compound which was dissolved in the perfusate had been infused from 20 minutes prior to the addition of endothelin-1 till just after finishing measurement of the concentration-response curve for endothelin-1.

For `CC(C)C[C@H](NC(=O)N1CCCCCC1)C(=O)N[C@H](Cc1c[nH]c2ccccc12)C(=O)N[C@H](Cc1c[nH]cn1)C(=O)O` [Compound 48], which “maximum response to endothelin-1 (perfusion pressure)” value is on record?
The value was “did not affect the maximum response”.
